# Assay results reported in the supplement of paper PMC8728848.
# The other results are listed elsewhere or left out.
# B1: DC-Sign-R (Homo sapiens), Q9H2X3 (protein)
# chain: MSDSKEPRVQQLGLLEEDPTTSGIRLFPRDFQFQQIHGHKSSTGCLGHGALVLQLLSFMLLAGVLVAILVQVSKVPSSLSQEQSEQDAIYQNLTQLKAAVGELSEKSKLQEIYQELTQLKAAVGELPEKSKLQEIYQELTRLKAAVGELPEKSKLQEIYQELTRLKAAVGELPEKSKLQEIYQELTRLKAAVGELPEKSKLQEIYQELTELKAAVGELPEKSKLQEIYQELTQLKAAVGELPDQSKQQQIYQELTDLKTAFERLCRHCPKDWTFFQGNCYFMSNSQRNWHDSVTACQEVRAQLVVIKTAEEQNFLQLQTSRSNRFSWMGLSDLNQEGTWQWVDGSPLSPSFQRYWNSGEPNNSGNEDCAEFSGSGWNDNRCDVDNYWICKKPAACFRDE
# Columns and labels:
# Assay in all cases: glycan array binding signal (z-score within array); higher = stronger binding
# Settings in all cases: glycan notation: IUPAC condensed, linker removed
# [1] = target: Gal(b1-4)GlcNAc(b1-3)Gal(b1-4)GlcNAc(b1-3)Gal(b1-4)GlcNAc
# Outline: (§1)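 The Consortium for Functional Glycomics database supplied 3228 glycan arrays, of which those lacking an available protein sequence were dropped. The binding signal, a within-array Z-score, was averaged across arrays of the same protein sequence and across linkers. Negative scores can be read as non-binding.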
# [2] = target: Gal(b1-4)GlcNAc(b1-3)Gal(b1-4)GlcNAc(b1-3)Gal(b1-4)GlcNAc(b1-2)Man(a1-3)[Gal(b1-4)GlcNAc(b1-3)Gal(b1-4)GlcNAc(b1-3)Gal(b1-4)GlcNAc(b1-2)Man(a1-6)]Man(b1-4)GlcNAc(b1-4)GlcNAc
# Outline: as §1
# [3] = target: Gal(b1-4)GlcNAc(b1-3)Gal(b1-4)GlcNAc(b1-3)Gal(b1-4)GlcNAc(b1-2)Man(a1-3)[Gal(b1-4)GlcNAc(b1-3)Gal(b1-4)GlcNAc(b1-3)Gal(b1-4)GlcNAc(b1-2)Man(a1-6)]Man(b1-4)GlcNAc(b1-4)[Fuc(a1-6)]GlcNAc
# Outline: as §1
# [4] = target: Gal(b1-4)GlcNAc(b1-3)Gal(b1-4)GlcNAc(b1-3)Gal(b1-4)GlcNAc(b1-2)[Gal(b1-4)GlcNAc(b1-3)Gal(b1-4)GlcNAc(b1-3)Gal(b1-4)GlcNAc(b1-6)]Man(a1-6)[Gal(b1-4)GlcNAc(b1-3)Gal(b1-4)GlcNAc(b1-3)Gal(b1-4)GlcNAc(b1-2)Man(a1-3)]Man(b1-4)GlcNAc(b1-4)[Fuc(a1-6)]GlcNAc
# Outline: as §1
# [5] = target: Gal(b1-4)GlcNAc(b1-3)Gal(b1-4)GlcNAc(b1-3)Gal(b1-4)GlcNAc(b1-3)Gal(b1-4)GlcNAc(b1-2)Man(a1-3)[Gal(b1-4)GlcNAc(b1-3)Gal(b1-4)GlcNAc(b1-3)Gal(b1-4)GlcNAc(b1-3)Gal(b1-4)GlcNAc(b1-2)Man(a1-6)]Man(b1-4)GlcNAc(b1-4)GlcNAc
# Outline: as §1
# [6] = target: Gal(b1-4)GlcNAc(b1-3)Gal(b1-4)GlcNAc(b1-3)Gal(b1-4)GlcNAc(b1-3)Gal(b1-4)GlcNAc(b1-2)Man(a1-3)[Gal(b1-4)GlcNAc(b1-3)Gal(b1-4)GlcNAc(b1-3)Gal(b1-4)GlcNAc(b1-3)Gal(b1-4)GlcNAc(b1-2)Man(a1-6)]Man(b1-4)GlcNAc(b1-4)[Fuc(a1-6)]GlcNAc
# Outline: as §1
# [7] = target: Gal(b1-4)GlcNAc(b1-3)Gal(b1-4)GlcNAc(b1-3)Gal(b1-4)GlcNAc(b1-3)Gal(b1-4)GlcNAc(b1-2)[Gal(b1-4)GlcNAc(b1-3)Gal(b1-4)GlcNAc(b1-3)Gal(b1-4)GlcNAc(b1-3)Gal(b1-4)GlcNAc(b1-6)]Man(a1-6)[Gal(b1-4)GlcNAc(b1-3)Gal(b1-4)GlcNAc(b1-3)Gal(b1-4)GlcNAc(b1-3)Gal(b1-4)GlcNAc(b1-2)Man(a1-3)]Man(b1-4)GlcNAc(b1-4)[Fuc(a1-6)]GlcNAc
# Outline: as §1
# [8] = target: Gal(b1-4)GlcNAc(b1-3)Gal(b1-4)GlcNAc(b1-3)Gal(b1-4)GlcNAc(b1-3)Gal(b1-4)GlcNAc(b1-3)Gal(b1-4)GlcNAc(b1-2)Man(a1-3)[Gal(b1-4)GlcNAc(b1-3)Gal(b1-4)GlcNAc(b1-3)Gal(b1-4)GlcNAc(b1-3)Gal(b1-4)GlcNAc(b1-3)Gal(b1-4)GlcNAc(b1-2)Man(a1-6)]Man(b1-4)GlcNAc(b1-4)GlcNAc
# Outline: as §1
# [9] = target: Gal(b1-4)GlcNAc(b1-3)Gal(b1-4)GlcNAc(b1-3)Gal(b1-4)GlcNAc(b1-3)Gal(b1-4)GlcNAc(b1-3)Gal(b1-4)GlcNAc(b1-2)Man(a1-3)[Gal(b1-4)GlcNAc(b1-3)Gal(b1-4)GlcNAc(b1-3)Gal(b1-4)GlcNAc(b1-3)Gal(b1-4)GlcNAc(b1-3)Gal(b1-4)GlcNAc(b1-2)Man(a1-6)]Man(b1-4)GlcNAc(b1-4)[Fuc(a1-6)]GlcNAc
# Outline: as §1
# [10] = target: Gal(b1-4)GlcNAc(b1-3)Gal(b1-4)GlcNAc(b1-3)Gal(b1-4)GlcNAc(b1-3)Gal(b1-4)GlcNAc(b1-3)Gal(b1-4)GlcNAc(b1-2)[Gal(b1-4)GlcNAc(b1-3)Gal(b1-4)GlcNAc(b1-3)Gal(b1-4)GlcNAc(b1-3)Gal(b1-4)GlcNAc(b1-3)Gal(b1-4)GlcNAc(b1-6)]Man(a1-6)[Gal(b1-4)GlcNAc(b1-3)Gal(b1-4)GlcNAc(b1-3)Gal(b1-4)GlcNAc(b1-3)Gal(b1-4)GlcNAc(b1-3)Gal(b1-4)GlcNAc(b1-2)Man(a1-3)]Man(b1-4)GlcNAc(b1-4)[Fuc(a1-6)]GlcNAc
# Outline: as §1
# [11] = target: Gal(b1-4)GlcNAc(b1-3)Gal(b1-4)GlcNAc(b1-3)Gal(b1-4)GlcNAc(b1-3)Gal(b1-4)GlcNAc(b1-3)Gal(b1-4)GlcNAc(b1-3)Gal(b1-4)GlcNAc(b1-2)Man(a1-3)[Gal(b1-4)GlcNAc(b1-3)Gal(b1-4)GlcNAc(b1-3)Gal(b1-4)GlcNAc(b1-3)Gal(b1-4)GlcNAc(b1-3)Gal(b1-4)GlcNAc(b1-3)Gal(b1-4)GlcNAc(b1-2)Man(a1-6)]Man(b1-4)GlcNAc(b1-4)GlcNAc
# Outline: as §1
# [12] = target: Gal(b1-4)GlcNAc(b1-3)Gal(b1-4)GlcNAc(b1-3)GalNAc
# Outline: as §1
# [13] = target: Gal(b1-4)GlcNAc(b1-3)Gal(b1-4)GlcNAc(b1-3)[Gal(b1-4)GlcNAc(b1-3)Gal(b1-4)GlcNAc(b1-6)]GalNAc
# Outline: as §1
# [14] = target: Gal(b1-4)GlcNAc(b1-3)Gal(b1-4)GlcNAc(b1-6)[Gal(b1-3)]GalNAc
# Outline: as §1
# [15] = target: Gal(b1-4)GlcNAc(b1-3)Gal(b1-4)[Fuc(a1-3)]GlcNAc(b1-3)Gal(b1-4)[Fuc(a1-3)]GlcNAc
# Outline: as §1
# [16] = target: Gal(b1-4)GlcNAc(b1-3)GalNAc
# Outline: as §1
# [17] = target: Gal(b1-4)GlcNAc(b1-3)[Fuc(a1-3)GlcNAc(b1-6)]Gal(b1-4)Glc
# Outline: as §1
# [18] = target: Gal(b1-4)GlcNAc(b1-3)[Gal(b1-4)GlcNAc(b1-6)]Gal(b1-4)GlcNAc
# Outline: as §1
# [19] = target: Gal(b1-4)GlcNAc(b1-3)[GlcNAc(b1-6)]Gal(b1-4)GlcNAc
# Outline: as §1
binder,measurement,setting,value
B1,glycan array binding signal (z-score),[1],-0.561
same,glycan array binding signal (z-score),[2],0.694
same,glycan array binding signal (z-score),[3],0.712
same,glycan array binding signal (z-score),[4],1.57
same,glycan array binding signal (z-score),[5],-0.627
same,glycan array binding signal (z-score),[6],-0.503
same,glycan array binding signal (z-score),[7],0.809
same,glycan array binding signal (z-score),[8],0.946
same,glycan array binding signal (z-score),[9],-0.11
same,glycan array binding signal (z-score),[10],0.255
same,glycan array binding signal (z-score),[11],-0.523
same,glycan array binding signal (z-score),[12],0.037
same,glycan array binding signal (z-score),[13],0.59
same,glycan array binding signal (z-score),[14],0.681
same,glycan array binding signal (z-score),[15],0.294
same,glycan array binding signal (z-score),[16],-0.197
same,glycan array binding signal (z-score),[17],1.01
same,glycan array binding signal (z-score),[18],0.178
same,glycan array binding signal (z-score),[19],0.038

# Given as tab-separated lines: part of the list above
binder	measurement	setting	value
B1	glycan array binding signal (z-score)	[13]	0.59
same	glycan array binding signal (z-score)	[14]	0.681
